# Data: PubChem BioAssay AID1259415 (National Center for Advancing Translational Sciences (NCATS), 2018)
# Screen size: about 410,000 compounds; about 18,000 (4.4%) were called active. The shares of active, inactive and inconclusive entries below differ from those in the screen. Rule as the data show it: active = activity change below about -60%; inconclusive = no clear call, values can overlap the other calls; inactive = above about -39%.
# Assay: qHTS Assay for inhibitors of the human cytomegalovirus (HCMV)
# Conditions: HFF cells, HCMV-luciferase reporter, 72 h; at 57.5 µM; stronger effect = lower value
# In short: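 Compounds were evaluated in HFFs infected with an HCMV luciferase reporter virus (MOI 1 PFU/cell). Luciferase in lysates collected 72 h post infection served as the replication measure.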
# % is scaled to controls: 0 for no effect and ±100 for the full control effect.
row,Compound,"activity change, negative = inhibition"
1,COc1ccc(NC(=O)N(C(C)C)C2CCN(C(C)=O)CC2)c(OC)c1,inconclusive: -48.1%
2,CC(NC(=O)CN(C)CC(=O)Nc1cccc(F)c1)c1ccccc1 (stereo not given),inactive: 25.7%
3,O=C(C[C@@H]1C/C=C\C[C@H](NC(=O)OCC2c3ccccc3-c3ccccc32)C(=O)OC[C@@H]2CCCN2C1=O)NCCO,inconclusive: -49.4%
4,CC(=O)c1c(C(C)=O)c(C)n(C(c2ccccc2)c2ccccc2)c1C,inactive: -17.4%
5,O=C(COc1ccc(Br)cc1)OCC(=O)c1ccc[nH]1,inactive: 42.3%
6,O=C(NC1CCCC1)C(=O)c1c[nH]c2ccccc12,inconclusive: -41.7%
7,NC(=O)CCc1nc2cc(C(F)(F)F)ccc2n(Cc2ccccc2)c1=O,inactive: -14.4%
8,COc1ccc(CCc2nc3ccccc3n2C(CCc2ccccc2)c2nc3ccccc3[nH]2)cc1 (stereo not given),inconclusive: -47.9%
9,Cc1nc(C(F)(F)F)ccc1C(=O)N1CCC1(C)C(=O)NS(=O)(=O)c1ccc(C(C)(C)C)cc1 (stereo not given),active: -81.2%
10,Cc1ccc(C(=O)Oc2ccc(C(=S)N3CCOCC3)cc2)cc1,inconclusive: -41.3%
11,COc1cccc(C(=O)NNC(=O)C(=O)N2CCCCC2)c1,active: -67.4%
12,CC(Sc1nnc(Nc2ccccc2)s1)C(=O)NC1CCCc2ccccc21 (stereo not given),inconclusive: -51.6%
13,COc1cc(/C=C2/S/C(=N/S(=O)(=O)Cc3ccccc3)NC2=O)c([N+](=O)[O-])cc1OC,inconclusive: -46.4%
14,CCn1c(Sc2ccc([N+](=O)[O-])cn2)nnc1-c1ccco1,active: -85.7%
15,Cc1ccc(NC(=O)c2nc(S(=O)(=O)Cc3cccc(C)c3)ncc2Cl)cc1,active: -94.3%
16,Cc1ccc(NC(=O)CSC2=C(C#N)C(c3ccc4c(c3)OCO4)CC(=O)N2)cc1C (stereo not given),inconclusive: -57.7%
17,O=[N+]([O-])c1cc(S(=O)(=O)N2CCCCC2)ccc1NCCCN1CCOCC1,inconclusive: -46.4%
18,NC(=O)CCN1CCCCC1,inactive: -5.15%
19,CCOC(=O)c1c(NC(=O)CN2CCC(C)CC2)sc(C)c1C,inconclusive: -47.9%
20,O=C(c1cccc(OC2CCN(Cc3cc(F)cc(F)c3)CC2)c1)N1CCCC1,inconclusive: -43.9%
21,CC(C)c1cc(CN2CCN(C3CCCC3)C(CCO)C2)[nH]n1 (stereo not given),inconclusive: -43.8%
22,Cn1c(C(=O)NCc2ccc(F)cc2)cc2cc(S(=O)(=O)N3CCCCC3)ccc21,inconclusive: -46.4%
23,CCC1CN(C(=O)N2CCC(C(=O)NCc3cc(OC)ccc3OC)CC2)c2ccccc2O1 (stereo not given),inactive: 44.1%
24,CC1CCN(CC(=O)Nc2ccc(Cl)cc2[N+](=O)[O-])CC1,inconclusive: -43.4%
25,N#CCN(CC#N)C(=O)C1c2ccccc2Oc2ccccc21,inactive: -9.89%
26,O=C(Nc1ccc(Cl)cc1C(F)(F)F)C(Sc1cccc[n+]1[O-])c1ccccc1 (stereo not given),inactive: 33.2%
27,CCn1cc(CN2CCc3c([nH]c4ccccc34)C2c2cccc(O)c2)c(C)n1 (stereo not given),inactive: 27.1%
28,O=C(NC1CCCC1)C(c1ccncc1)N(C(=O)c1csnn1)C1CCCC1 (stereo not given),inconclusive: -44.8%

row,Compound,"activity change, negative = inhibition"
1,c1ccc(Cn2c(-c3ccccc3)c[n+]3c2SCCC3)cc1,inconclusive: -58.7%
2,O=C(NCc1cccnc1)C(=O)NCC(c1ccco1)N1CCN(c2ccccc2)CC1 (stereo not given),inconclusive: -53.5%
3,C/C(CCc1ccco1)=N/NC(=O)CCC(=O)Nc1cccc(Cl)c1,inactive: -29.8%
4,COc1ccc(-n2nnnc2SCC(=O)NCc2cccs2)cc1,inconclusive: -44.3%
5,COc1ccc(N2CCN(C(=O)CSc3nnnn3-c3ccc4c(c3)OCCO4)CC2)cc1,inconclusive: -48.3%
6,Cc1ccc(CSCc2nnc(SCC(=O)N3CCN(c4ccccc4)CC3)n2C)cc1,inconclusive: -40.3%
7,CC(OC(=O)c1cc2sccc2n1C)C(=O)NCc1cccs1 (stereo not given),inconclusive: -45%
8,Cc1ccc(CSCCNC(=O)c2ccc(Cl)c(S(=O)(=O)N3CCOCC3)c2)cc1,inactive: -39.1%
9,CC(Oc1ccc(Cl)cc1Cl)c1ccnc(N)n1 (stereo not given),inconclusive: -41.4%
10,O=C(NCC1CCCN(Cc2nccs2)C1)c1cccc2ccccc12 (stereo not given),inconclusive: -44.4%
11,Cc1cccc(-c2nnc(SCCC(=O)N3CCOCC3)o2)c1,inconclusive: -49.8%
12,CCOc1ccc(N(CC(=O)N2CCCC2)S(=O)(=O)c2ccc(Cl)cc2)cc1,inconclusive: -44.6%
13,CC(C)C(NC(=O)c1ccc(C(C)(C)C)cc1)C(=O)Nc1ccc(N2CCOCC2)cc1 (stereo not given),inactive: -5.6%
14,COc1cccc(OC)c1OCCNCC1CSc2ccccc2O1 (stereo not given),inconclusive: -51.2%
15,O=C(NCc1ccco1)C1CCN(C(=O)c2ccc(Cl)cc2Cl)CC1,inactive: -6.84%
16,c1ccc(-c2nnc(SCC3CCCCO3)nc2-c2ccccc2)cc1 (stereo not given),inconclusive: -59.9%
17,O=C(NCCc1ccccc1)C1CCN(S(=O)(=O)c2ccccc2)CC1,active: -104%
18,C[C@H]1CN=C(Nc2ccccc2)N1CCCC1CCCC1,inconclusive: -43%
19,COC(=O)c1ccccc1NC(=O)c1nc(S(=O)(=O)Cc2ccccc2)ncc1Cl,active: -110%
20,CCOc1ccc(N2CC(C(=O)NCCN3C(=O)S/C(=C\c4cccnc4)C3=O)CC2=O)cc1 (stereo not given),inconclusive: -54%
21,CSc1nnc(C)c(=O)[nH]1,inactive: 23.6%
22,COC(=O)c1ccc(Cl)cc1NC(=O)Nc1nnc(N(C)Cc2ccccc2)s1,inactive: -5.07%
23,COc1ccc(C2c3c(-c4ccccc4O)n[nH]c3C(=O)N2CCc2ccccc2)cc1 (stereo not given),active: -67.2%
24,O=C1C(=O)N(C2CCS(=O)(=O)C2)C(c2cccc(O)c2)/C1=C(/O)c1ccc(Cl)cc1 (stereo not given),inconclusive: -43.4%
25,Cc1ccc(N2C(=O)c3ccccc3C2Nc2cccnc2)nc1 (stereo not given),inactive: 51.4%
26,C=CCn1c(COc2cccc(C)c2C)nnc1SCC(=O)N1CCN(c2ccccc2)CC1,inconclusive: -58.7%
27,OCCN(CCO)c1ccc(C(c2ccc(Cl)cc2)c2ccc(N(CCO)CCO)cc2Cl)c(Cl)c1,inconclusive: -41.9%

# Copied from the list.
# For activity change, negative = inhibition, Cc1ccc(N2C(=O)c3ccccc3C2Nc2cccnc2)nc1 (stereo not given) reads inactive: 51.4%
# For activity change, negative = inhibition, C=CCn1c(COc2cccc(C)c2C)nnc1SCC(=O)N1CCN(c2ccccc2)CC1 reads inconclusive: -58.7%
# For activity change, negative = inhibition, c1ccc(-c2nnc(SCC3CCCCO3)nc2-c2ccccc2)cc1 (stereo not given) reads inconclusive: -59.9%
